For 2 molecules, binding results are on record in PMC7472852, “The Phosphatase PP2A Interacts With ArnA and ArnB to Regulate the Oligomeric State and the Stability of the ArnA/B Complex” (Frontiers in Microbiology, 2020).

The chains behind the UniProt entries cited, without tags or fusion partners. Where a name states a change or a piece, a line headed by the entry shows the natural chain unless it says otherwise.
UniProt Q4JAD1: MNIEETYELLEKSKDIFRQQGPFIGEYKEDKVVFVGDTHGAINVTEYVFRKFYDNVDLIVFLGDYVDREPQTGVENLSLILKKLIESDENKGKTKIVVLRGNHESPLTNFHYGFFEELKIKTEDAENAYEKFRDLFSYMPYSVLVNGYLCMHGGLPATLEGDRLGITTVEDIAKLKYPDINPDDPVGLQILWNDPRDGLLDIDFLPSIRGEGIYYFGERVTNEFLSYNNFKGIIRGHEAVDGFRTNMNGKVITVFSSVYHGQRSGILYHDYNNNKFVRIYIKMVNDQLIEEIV

Results are given in words; binding and its absence hold for the method and conditions named. Binding seen in cells or lysates may run through a third protein. A yes stands for co-enrichment or nearness to the bait. Other partners may have been found.

The assay has as its target HA-tagged PP2A (serine/threonine phosphatase PP2A of S. acidocaldarius) (S. acidocaldarius) (UniProt Q4JAD1). Briefly: affinity purification with mass spectrometry; anti-HA magnetic beads (Pierce HA-tag IP/co-IP kit) on cytoplasmic fraction of S. acidocaldarius with chromosomally HA-tagged PP2A, 0.5 h in starvation medium; no cross-linker; MW001 as control; LC-MS/MS, label-free quantification.

B1: universal stress protein Saci_0887 (protein, UniProt Q4JAC8 1-128)
chain: MKFLIAYDGSEQSKKAVRFLLRILKKEDEVYVITVIKEAPRSPDQKIIEDEKKAEGLHKEVLELFPSAKSAIIESGDVVSTIIDYCERVNCDMIVTGSRGLTGIKKVVIGSVSSALIEKAKVPILVVK
In the case of B1, the binding result is recorded as “binds”.

B2: conserved putative ATP/GTP binding protein Saci_1281 (protein, UniProt Q4J9A7 1-254)
chain: MYFIFVLGTAGSGKTTLVKALQDYLLNNELDTAIINLDPAVEVLPYKPDIDAREYVDVYDVMNKYELGPNSSLVISVDLLLTKAKELKEDLNQLQANYVLVDTPGQIELFAYRDTGKILSSFISEGSKSVSVFLFDSYLSKDPKSFLSLFLLSSSIKFRIDMPQISVLSKVDLLSSSELERMRSWIEDGSIIDELGSIDEYSFELVKTIVENLESFPIPVSSTNFSGLDQLYAEVQKVLAGGEDFETEEPNPRL
As to B2, the binding result is “binds”.
